Measurements: US20250170143A1, “METHODS OF TREATING OCULAR FIBROTIC PATHOLOGIES” (Mayo Foundation for Medical Education and Research, priority 2022, published 2025)

Tested on: ARPE-19 cells
Experiment: Fibronectin deposition assay in TGFβ-stimulated ARPE-19 cells
Format: cell-based
Conditions: Homo sapiens, ARPE-19 cells stimulated with TGFβ, incubated 96 hours
Procedure: ARPE-19 cells were plated into 96-well plates (10,000 cells/well) and allowed to attach. Media was removed and replaced with the media specified in the “Cell Culture” section above, without FBS. Cells were treated for four days±TGFβ (10 ng/mL) and 10 μM loxapine. Cells were fixed with 10% neutral buffered formalin (Sigma-Aldrich) for 15 minutes. Cells were permeabilized with 0.25% Triton X-100 (Sigma-Aldrich) and blocked with 1% BSA for 1 hour. Cells were incubated with mouse monoclonal IgG3 primary antibodies against fibronectin (Santa Cruz Biotechnology), which were diluted 1:400 in 0.25% Triton X-100 (Sigma-Aldrich) with 1% BSA. Cells were incubated with primary antibodies either in 4° C. overnight or at room temperature for 2 hours. […] Immunofluorescence was measured using a Cytation 5 imaging reader (BioTek). […]
The antifibrotic activity of novel D2 dopamine receptor antagonists solnitropine and solupine were evaluated using the fibronectin deposition assay described in Example 1 (FIGS. 6A and 6B). The antifibrotic activity of D2 dopamine receptor antagonists methotrexate, spiperone, fluspirilene, penfluridol, droperidol, timiperone, benperidol, and lurasidone were evaluated using the fibronectin deposition assay described in Example 1 (FIG. 9A9C). […]

IC50 [µM]	Structure (SMILES)
5 to 10	O=C(CCCN1CCC2(CC1)C(=O)NCN2c1ccccc1)c1ccc(F)cc1 [spiperone]
5 to 10	CN1CC2c3ccccc3Oc3ccc(Cl)cc3C2C1 (centres unmarked) [asenapine]
